In all, about 2,100 compounds went through this assay and about 180 (8.6%) showed an effect of 50% or more. The list shows a part of the results.
test system: MOLM1 and UCSD/AML1 (averaged); test: cell viability relative to DMSO control (POC); higher = less growth inhibition; conditions: 1 µM; 72 h
Experimental: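 Primary viability screen in the 3q26 EVI1-high AML cell lines MOLM1 and UCSD/AML1 (1.5e3 cells/well, 384-well), compounds at 1 uM for 72 h. ATP CellTiter-Glo read-out given as percent of viable cells over DMSO control (POC), averaged over duplicates. DMSO was the negative control and 5 uM etoposide the positive control. This mapping covers the MicroSource Spectrum and Selleck anticancer libraries (drug names).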

First: CC(=O)N[C@@H](CS)C(=O)O
Second: O=C(O)P(=O)(O)O
The cell viability of the first is lower: 99.9% for the first, 108% for the second.

Compared with C[C@]1(c2nc3c(C(N)=O)cccc3[nH]2)CCCN1 [ABT-888 (Veliparib)], OC(c1cc(C(F)(F)F)nc2c(C(F)(F)F)cccc12)C1CCCCN1 (centres undefined) is lower in cell viability: 101% for the first, 98.3% for the second.

Compared with CC(=O)O[C@H]1C[C@@]2(C)[C@@H](C[C@@H](O)[C@H]3[C@@]4(C)CC[C@@H](O)[C@@H](C)[C@@H]4CC[C@@]32C)/C1=C(\CCC=C(C)C)C(=O)O, CCCCCC(=O)O[C@]1(C(C)=O)CC[C@H]2[C@@H]3CCC4=CC(=O)CC[C@]4(C)[C@H]3CC[C@@]21C is higher in cell viability: 97.4% for the first, 102% for the second.

Compared with O=C(O)Cc1cccc(OCCCN(Cc2cccc(C(F)(F)F)c2Cl)CC(c2ccccc2)c2ccccc2)c1, CCN1CCCC(OC(=O)C(c2ccccc2)c2ccccc2)C1 (centres undefined) is higher in cell viability: 91.2% for the first, 98.7% for the second.

Going from O=c1cc(-c2ccccc2)oc2cc(O)c(O)c(O)c12 to O=c1c(-c2ccc(O)cc2)coc2cc(O)ccc12, the cell viability rises from 86% to 93.7%.

Compared with CC(C)CCCC(C)N (centres undefined), CN(C)CCCSC(=N)N is higher in cell viability: 95.1% for the first, 117% for the second.

First: COc1cc(C2Oc3cc([C@H]4Oc5cc(O)cc(O)c5C(=O)[C@@H]4O)ccc3OC2CO)ccc1O (some centres undefined)
Second: O=C(O[C@@H]1Cc2c(O)cc(O)cc2O[C@@H]1c1ccc(O)c(O)c1)c1cc(O)c(O)c(O)c1
The cell viability of the first is lower: 92.4% for the first, 96.5% for the second.

Going from CNCCCC12CCC(c3ccccc31)c1ccccc12 to O=C(Oc1ccccc1C(=O)O)c1ccccc1O, the cell viability rises from 103% to 104%.

Going from CC[C@H]1OC(=O)C[C@@H](O)[C@H](C)[C@@H](O[C@@H]2O[C@H](C)[C@@H](O)[C@H](N(C)C)[C@H]2O)[C@@H](CCN2C[C@H](C)C[C@H](C)C2)C[C@@H](C)C(=O)/C=C/C(C)=C/[C@@H]1CO[C@@H]1O[C@H](C)[C@@H](O)[C@@H](OC)[C@H]1OC to CO[C@H]1C[C@@H]2CC[C@@H](C)[C@@](O)(O2)C(=O)C(=O)N2CCCC[C@H]2C(=O)O[C@H]([C@H](C)C[C@@H]2CC[C@@H](O)[C@H](OC)C2)CC(=O)[C@H](C)/C=C(\C)[C@@H](O)[C@@H](OC)C(=O)[C@H](C)C[C@H](C)/C=C/C=C/C=C/1C [Rapamycin (Sirolimus)], the cell viability falls from 91% to 41.5%.

Compared with CC1(C)O[C@@H]2C[C@H]3[C@@H]4CCC5=CC(=O)CC[C@]5(C)[C@@]4(F)[C@@H](O)C[C@]3(C)[C@]2(C(=O)CCl)O1, C[C@]12C=CC(=O)C=C1CC[C@H]1[C@@H]3C[C@@H](O)[C@](O)(C(=O)CO)[C@@]3(C)C[C@H](O)[C@@]12F is higher in cell viability: 69.8% for the first, 75.7% for the second.

Going from C[C@@H]1O[C@@H](OC[C@H]2O[C@@H](Oc3c(-c4ccc(OCCO)c(OCCO)c4)oc4cc(OCCO)cc(O)c4c3=O)[C@H](O)[C@@H](O)[C@@H]2O)[C@H](O)[C@H](O)[C@H]1O to O=C(CCc1ccc(O)cc1)c1c(O)cc(O)cc1O[C@@H]1OC(CO)[C@@H](O)[C@@H](O)C1O (some centres undefined), the cell viability falls from 116% to 104%.

First: Cc1cc(C)cc(OCC2CNC(=O)O2)c1 (centres undefined)
Second: C=C1[C@@H]([C@@]2(C)C=CC(=O)C(C)(C)[C@@H]2CC(=O)OC)CC[C@@]2(C)[C@H](c3ccoc3)OC(=O)[C@H]3O[C@]132
The cell viability of the first is lower: 91.3% for the first, 102% for the second.

Compared with CC(=O)O[C@H]1C[C@@H]2CC[C@@H]3[C@H](CC[C@@]4(C)[C@H]3C[C@H]([N+]3(C)CCCCC3)[C@@H]4OC(C)=O)[C@@]2(C)C[C@@H]1N1CCCCC1, COC(=O)C[C@H]1C(C)(C)[C@@H](OC(C)=O)[C@@H]2CC3=C4CC(=O)O[C@@H](c5ccoc5)[C@]4(C)CC[C@@H]3[C@@]1(C)C2=O is higher in cell viability: 94.6% for the first, 103% for the second.

Compared with COc1ccc(C(=O)O)c(O)c1OC, COc1c(C)c2c(c(O)c1C/C=C(\C)CCC(=O)O)C(=O)OC2 [Mycophenolic (Mycophenolate)] is lower in cell viability: 97.8% for the first, 42.4% for the second.

Going from CN1C(=O)OC(C)(C)C1=O to CC1(C)C2CC(=O)O[C@@]3(C)C4=CC(=O)O[C@@H](c5ccoc5)[C@]4(C)CCC3[C@@]2(C)C=C[C@H]1O (some centres undefined), the cell viability rises from 93.2% to 95.9%.

Going from NCCNCCNCCN to CCN(CC)CCCC(C)Nc1c2ccc(Cl)cc2nc2ccc(OC)cc12 (centres undefined), the cell viability falls from 116% to 94.2%.

First: C/C(=C\C(=O)Nc1ccccc1C(=O)O)c1ccc2ccccc2c1
Second: Nc1ccc(C(=O)O)cc1
The cell viability of the first is higher: 104% for the first, 101% for the second.

Compared with COc1c(C)c2c(c(O)c1C/C=C(\C)CCC(=O)O)C(=O)OC2, Cc1nc(C)c(Cl)c(O)c1Cl is higher in cell viability: 44% for the first, 108% for the second.

First: O=C(O)c1ccc(S(=O)(=O)N(Cl)Cl)cc1
Second: CC(C)c1ccc2c(c1)CC[C@H]1[C@](C)(CN)CCC[C@]21C
The cell viability of the first is higher: 101% for the first, 94.4% for the second.

For CO[C@H]1C[C@@H]2CC[C@@H](C)[C@@](O)(O2)C(=O)C(=O)N2CCCC[C@H]2C(=O)O[C@H]([C@H](C)C[C@@H]2CC[C@@H](O)[C@H](OC)C2)CC(=O)[C@H](C)/C=C(\C)[C@@H](O)[C@@H](OC)C(=O)[C@H](C)C[C@H](C)/C=C/C=C/C=C/1C, the cell viability was 44%.
